# Reference: patent publication US8198327B2, “Fatty acid amides and uses thereof” (Yissum Research Development Company of the Hebrew …, priority 2008, dated 2012)
# Some of these results come from one statement about several compounds together.
# Test system: MC3T3 E1 osteoblastic cells
# Test: MC3T3 E1 osteoblastic cell assay (cell number / proliferation)
# Format: cell-based
# Conditions: relative to HU-639
# Source text: FIGS. 1(A)-1(F) are graphical depictions of screening of fatty acid derivatives identified in brain for proliferative activity in MC3T3 E1 osteoblastic cells. (A), oleoyl-serine (HU-639); (B), palmitoyl-serine; (C), arachidonoyl-serine (HU-362); (D), arachidonoyl-ethanolamide; (E), palmitoyl-ethanolamide; (F), 2-arachidonoylglycerol. Data are mean±SE obtained in 3 culture wells per condition.
# FIG. 9 represents methylated oleoyl-serine (HU-639) derivatives α-methyl oleoyl serine (HU-671) and 2-methyl-oleoyl serine (HU-681)) stimulation of MC3T3 E1 osteoblastic cell number at concentration 10- to 100-fold lower than HU-639. Data are mean±SE obtained in 3 culture wells per condition. *, ANOVA, p<0.05 vs. ligand-free control (Cntl).
# Several lipid compounds present in the brain stimulated the proliferation of MC3T3 E1 osteoblast-like cells in vitro (FIG. 1). […] The HU-639 mitogenic effect was confirmed measuring BrdU incorporation in the MC3T3 E1 cells and in primary calvarial osteoblasts (FIG. 4A). […] Typical of some osteoblast mitogenic agents [Miguel et al, 2005], the dose-response curves representing oleoyl-serine (HU-639) activity in culture are bell shaped, with the peak stimulation of cell number followed by reversal of the effect to baseline levels (FIGS. 4A, 4B). […]
row,SMILES,"concentration stimulating cell number, fold lower than HU-639"
1,"CCCCCCCC/C=C\CCCCCCC(C)C(=O)N[C@@H](CO)C(=O)O (stereo partly drawn) [HU-681, 2-Methyl Oleoyl-L-Serine]",10- to 100 fold
2,"CCCCCCCC/C=C\CCCCCCCC(=O)NC(C)(CO)C(=O)O (racemic) [HU-671, N-oleoly α-methyl-DL-serine]",10- to 100 fold
